Assay results taken from publication PMC10723409.

Sequences of proteins named here, by UniProt entry; tags and fusion partners are left off. Residues count along the entry.
UniProt Q9Y2J2: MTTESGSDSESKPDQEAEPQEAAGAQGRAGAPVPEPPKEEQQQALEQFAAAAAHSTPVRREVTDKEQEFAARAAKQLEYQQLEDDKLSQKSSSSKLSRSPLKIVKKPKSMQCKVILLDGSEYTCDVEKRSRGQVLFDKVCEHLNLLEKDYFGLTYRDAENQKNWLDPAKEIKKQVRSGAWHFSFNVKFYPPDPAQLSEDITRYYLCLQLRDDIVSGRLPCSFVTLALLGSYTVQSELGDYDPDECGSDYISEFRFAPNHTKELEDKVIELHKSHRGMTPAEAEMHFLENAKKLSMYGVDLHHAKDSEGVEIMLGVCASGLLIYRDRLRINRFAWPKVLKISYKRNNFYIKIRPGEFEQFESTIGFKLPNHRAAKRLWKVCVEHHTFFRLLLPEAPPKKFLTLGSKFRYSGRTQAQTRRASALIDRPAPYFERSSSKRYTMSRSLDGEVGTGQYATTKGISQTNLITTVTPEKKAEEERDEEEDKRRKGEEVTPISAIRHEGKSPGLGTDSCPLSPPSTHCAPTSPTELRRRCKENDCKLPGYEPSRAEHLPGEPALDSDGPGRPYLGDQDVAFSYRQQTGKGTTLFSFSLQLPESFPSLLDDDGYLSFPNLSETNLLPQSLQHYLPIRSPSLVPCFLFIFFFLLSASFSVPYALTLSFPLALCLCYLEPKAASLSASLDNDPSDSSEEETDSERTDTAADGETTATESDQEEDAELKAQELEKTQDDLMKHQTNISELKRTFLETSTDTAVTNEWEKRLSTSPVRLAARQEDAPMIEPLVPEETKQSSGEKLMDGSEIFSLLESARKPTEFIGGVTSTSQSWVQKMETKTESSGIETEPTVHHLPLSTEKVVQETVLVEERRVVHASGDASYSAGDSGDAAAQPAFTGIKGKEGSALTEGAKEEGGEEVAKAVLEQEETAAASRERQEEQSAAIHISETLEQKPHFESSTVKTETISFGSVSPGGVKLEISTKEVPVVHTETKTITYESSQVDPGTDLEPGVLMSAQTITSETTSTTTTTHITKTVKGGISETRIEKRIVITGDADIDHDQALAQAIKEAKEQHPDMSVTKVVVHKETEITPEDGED
UniProt O43491: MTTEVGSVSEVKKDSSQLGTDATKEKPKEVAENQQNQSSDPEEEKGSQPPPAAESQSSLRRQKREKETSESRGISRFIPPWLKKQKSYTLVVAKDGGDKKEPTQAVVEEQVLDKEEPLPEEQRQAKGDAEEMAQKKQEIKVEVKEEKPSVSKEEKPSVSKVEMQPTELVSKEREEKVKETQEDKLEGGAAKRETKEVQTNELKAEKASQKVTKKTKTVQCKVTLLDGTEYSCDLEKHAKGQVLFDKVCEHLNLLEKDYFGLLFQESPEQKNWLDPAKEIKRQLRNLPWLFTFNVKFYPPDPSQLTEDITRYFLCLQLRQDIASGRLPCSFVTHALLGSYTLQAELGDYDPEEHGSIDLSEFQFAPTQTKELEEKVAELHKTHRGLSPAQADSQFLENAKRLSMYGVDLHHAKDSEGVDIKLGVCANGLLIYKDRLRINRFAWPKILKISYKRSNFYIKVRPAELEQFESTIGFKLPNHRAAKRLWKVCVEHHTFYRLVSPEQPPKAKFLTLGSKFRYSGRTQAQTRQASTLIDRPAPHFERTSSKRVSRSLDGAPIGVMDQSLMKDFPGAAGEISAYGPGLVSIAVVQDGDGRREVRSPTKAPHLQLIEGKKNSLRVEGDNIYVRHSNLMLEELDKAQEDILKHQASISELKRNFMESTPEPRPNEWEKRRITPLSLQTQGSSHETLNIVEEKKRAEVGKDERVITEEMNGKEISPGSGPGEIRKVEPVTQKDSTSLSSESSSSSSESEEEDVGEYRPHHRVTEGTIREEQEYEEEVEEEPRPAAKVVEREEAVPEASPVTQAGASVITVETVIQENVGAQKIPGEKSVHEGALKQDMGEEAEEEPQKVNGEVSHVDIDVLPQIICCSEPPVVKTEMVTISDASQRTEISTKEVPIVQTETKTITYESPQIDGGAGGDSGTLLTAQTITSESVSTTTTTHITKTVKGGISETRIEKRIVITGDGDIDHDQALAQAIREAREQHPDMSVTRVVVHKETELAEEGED
UniProt Q14126, residues 50-1118: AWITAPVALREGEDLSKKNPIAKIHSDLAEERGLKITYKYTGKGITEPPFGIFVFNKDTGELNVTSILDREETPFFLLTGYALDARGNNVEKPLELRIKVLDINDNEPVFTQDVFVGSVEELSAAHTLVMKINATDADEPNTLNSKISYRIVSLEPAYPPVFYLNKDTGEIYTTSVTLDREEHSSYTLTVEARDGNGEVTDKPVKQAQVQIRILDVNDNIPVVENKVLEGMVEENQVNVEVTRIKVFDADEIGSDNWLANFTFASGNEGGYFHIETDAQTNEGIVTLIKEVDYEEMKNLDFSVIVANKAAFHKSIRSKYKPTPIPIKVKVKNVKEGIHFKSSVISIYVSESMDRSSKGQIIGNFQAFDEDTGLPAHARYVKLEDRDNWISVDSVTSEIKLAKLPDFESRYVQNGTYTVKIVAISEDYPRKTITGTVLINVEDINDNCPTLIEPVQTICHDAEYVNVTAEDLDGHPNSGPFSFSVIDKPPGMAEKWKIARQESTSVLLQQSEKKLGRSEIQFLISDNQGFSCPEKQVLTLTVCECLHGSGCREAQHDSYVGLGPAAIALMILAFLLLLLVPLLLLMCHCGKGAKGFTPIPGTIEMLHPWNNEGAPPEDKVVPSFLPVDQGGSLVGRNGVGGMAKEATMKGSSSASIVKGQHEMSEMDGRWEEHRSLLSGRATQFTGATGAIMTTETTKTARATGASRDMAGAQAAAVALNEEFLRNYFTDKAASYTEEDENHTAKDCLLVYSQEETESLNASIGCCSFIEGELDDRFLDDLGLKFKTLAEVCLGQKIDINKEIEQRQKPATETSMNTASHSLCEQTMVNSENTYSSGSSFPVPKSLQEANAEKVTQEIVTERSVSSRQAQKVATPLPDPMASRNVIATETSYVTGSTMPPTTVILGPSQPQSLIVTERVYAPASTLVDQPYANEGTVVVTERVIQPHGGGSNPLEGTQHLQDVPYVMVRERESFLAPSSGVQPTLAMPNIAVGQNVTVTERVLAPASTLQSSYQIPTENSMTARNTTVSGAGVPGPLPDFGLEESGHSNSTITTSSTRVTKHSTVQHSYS

What was measured:
Assay in all cases: proximity labelling; APEX2-eGFP fusions of TMEM24 constructs expressed in HEK293 cells; 500 uM biotin tyramide 1 hr, 1 mM H2O2 1 min; biotinylated proteins purified on streptavidin magnetic beads; LC MS/MS with label free quantitation in triplicate; enrichment of the grouped TMEM24 full length, 1-630 and 1-666 samples against controls lacking a.a. 414-630
TMEM24(1–630)-APEX2-eGFP [1] = target: T1, TMEM24(1–630)-APEX2-eGFP (UniProt O14523)
T1 sequence: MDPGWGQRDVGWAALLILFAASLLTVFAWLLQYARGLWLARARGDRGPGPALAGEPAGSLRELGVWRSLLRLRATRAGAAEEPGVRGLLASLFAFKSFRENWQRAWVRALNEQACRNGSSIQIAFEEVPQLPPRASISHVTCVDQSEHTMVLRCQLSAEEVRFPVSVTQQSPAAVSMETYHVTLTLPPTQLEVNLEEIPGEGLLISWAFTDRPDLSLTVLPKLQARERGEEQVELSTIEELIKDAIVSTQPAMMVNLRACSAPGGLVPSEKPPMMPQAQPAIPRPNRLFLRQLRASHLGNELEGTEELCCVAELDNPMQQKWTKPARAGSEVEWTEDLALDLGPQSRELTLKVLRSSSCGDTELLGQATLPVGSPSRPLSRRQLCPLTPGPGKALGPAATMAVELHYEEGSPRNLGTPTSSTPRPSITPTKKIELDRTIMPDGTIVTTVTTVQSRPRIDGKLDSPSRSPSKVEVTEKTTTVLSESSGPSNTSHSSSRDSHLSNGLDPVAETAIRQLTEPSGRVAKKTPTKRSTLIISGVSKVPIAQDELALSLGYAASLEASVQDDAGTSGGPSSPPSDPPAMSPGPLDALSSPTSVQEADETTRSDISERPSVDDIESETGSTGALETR

TMEM24(1–666)-APEX2-eGFP [2] = target: T2, TMEM24(1–666)-APEX2-eGFP (UniProt O14523)
T2 sequence: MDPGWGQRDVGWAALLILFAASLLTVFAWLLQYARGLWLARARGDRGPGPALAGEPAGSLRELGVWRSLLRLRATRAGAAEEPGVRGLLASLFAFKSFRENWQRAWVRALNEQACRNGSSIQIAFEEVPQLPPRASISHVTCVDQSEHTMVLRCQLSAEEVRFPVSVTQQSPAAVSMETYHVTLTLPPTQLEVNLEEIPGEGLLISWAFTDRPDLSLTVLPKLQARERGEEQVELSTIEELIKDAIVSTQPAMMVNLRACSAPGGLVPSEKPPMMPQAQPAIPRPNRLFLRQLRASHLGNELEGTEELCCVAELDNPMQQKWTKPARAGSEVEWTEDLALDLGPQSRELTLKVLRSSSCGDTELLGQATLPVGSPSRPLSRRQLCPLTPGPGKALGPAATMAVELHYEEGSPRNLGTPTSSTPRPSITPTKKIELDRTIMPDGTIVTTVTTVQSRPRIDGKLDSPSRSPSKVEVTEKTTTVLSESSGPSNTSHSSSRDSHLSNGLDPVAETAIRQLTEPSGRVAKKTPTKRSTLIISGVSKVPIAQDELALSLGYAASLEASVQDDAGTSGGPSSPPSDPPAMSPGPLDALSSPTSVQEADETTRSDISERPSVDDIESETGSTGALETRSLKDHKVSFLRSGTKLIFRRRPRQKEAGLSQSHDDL

[3] = target: T3, TMEM24-APEX2-eGFP (full length TMEM24 fused to APEX2) (UniProt O14523)
T3 sequence: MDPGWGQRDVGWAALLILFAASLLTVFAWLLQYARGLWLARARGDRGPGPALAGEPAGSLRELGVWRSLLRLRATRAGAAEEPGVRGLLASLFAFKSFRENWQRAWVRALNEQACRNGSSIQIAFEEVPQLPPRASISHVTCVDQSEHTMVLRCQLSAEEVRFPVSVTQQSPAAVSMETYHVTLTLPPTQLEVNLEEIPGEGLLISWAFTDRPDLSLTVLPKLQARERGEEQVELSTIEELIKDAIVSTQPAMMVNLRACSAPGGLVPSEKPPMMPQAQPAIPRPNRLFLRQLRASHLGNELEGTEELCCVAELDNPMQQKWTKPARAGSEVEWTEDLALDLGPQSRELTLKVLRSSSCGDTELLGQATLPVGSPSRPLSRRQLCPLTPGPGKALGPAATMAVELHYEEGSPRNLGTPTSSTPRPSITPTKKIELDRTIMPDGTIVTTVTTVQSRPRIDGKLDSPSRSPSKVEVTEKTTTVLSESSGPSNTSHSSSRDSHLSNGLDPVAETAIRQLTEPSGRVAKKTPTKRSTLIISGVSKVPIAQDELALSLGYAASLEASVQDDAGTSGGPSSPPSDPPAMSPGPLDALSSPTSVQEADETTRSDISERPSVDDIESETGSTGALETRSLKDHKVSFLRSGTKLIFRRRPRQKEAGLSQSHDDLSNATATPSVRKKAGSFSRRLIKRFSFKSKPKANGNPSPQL

TMEM24(1–630)-APEX2-eGFP [4] = target: T1, TMEM24(1–630)-APEX2-eGFP; remark: listed apart in the source
TMEM24(1–666)-APEX2-eGFP [5] = target: T2, TMEM24(1–666)-APEX2-eGFP; remark: listed apart in the source
[6] = target: T3, TMEM24-APEX2-eGFP (full length TMEM24 fused to APEX2); remark: listed apart in the source

Measured: binding

band 4.1 protein 4.1B (from UniProt Q9Y2J2 1-1087)
binds: TMEM24(1–630)-APEX2-eGFP [1] | TMEM24(1–666)-APEX2-eGFP [2] | [3]

band 4.1 protein 4.1G (from UniProt O43491 1-1005)
binds: TMEM24(1–630)-APEX2-eGFP [1] | TMEM24(1–666)-APEX2-eGFP [2] | [3]

desmoglien-2 (DSG-2) (from UniProt Q14126 50-1118)
binds: TMEM24(1–630)-APEX2-eGFP [1] | TMEM24(1–666)-APEX2-eGFP [2] | [3]

B1: membrane palmitoylated protein 1 (MPP1) (protein, UniProt Q00013 1-466)
chain: MTLKASEGESGGSMHTALSDLYLEHLLQKRSRPEAVSHPLNTVTEDMYTNGSPAPGSPAQVKGQEVRKVRLIQFEKVTEEPMGITLKLNEKQSCTVARILHGGMIHRQGSLHVGDEILEINGTNVTNHSVDQLQKAMKETKGMISLKVIPNQQSRLPALQMFMRAQFDYDPKKDNLIPCKEAGLKFATGDIIQIINKDDSNWWQGRVEGSSKESAGLIPSPELQEWRVASMAQSAPSEAPSCSPFGKKKKYKDKYLAKHSSIFDQLDVVSYEEVVRLPAFKRKTLVLIGASGVGRSHIKNALLSQNPEKFVYPVPYTTRPPRKSEEDGKEYHFISTEEMTRNISANEFLEFGSYQGNMFGTKFETVHQIHKQNKIAILDIEPQTLKIVRTAELSPFIVFIAPTDQGTQTEALQQLQKDSEAIRSQYAHYFDLSLVNNGVDETLKKLQEAFDQACSSPQWVPVSWVY
binds: TMEM24(1–630)-APEX2-eGFP [4] | TMEM24(1–666)-APEX2-eGFP [5] | [6]

Read-outs that look alike come from different tables or passages of the source. These are yes or no findings as the source states them, for the method shown. In cells and extracts the contact can be indirect. These calls come from enrichment with a bait or labelling near it, and not all partners need be listed. Sequences can lack the tags named with a protein.
